Laboratory results from article PMC9988962 (Scientific Reports, 2023).
Strings that start with PEPTIDE1 are HELM notation: dots part the residues, brackets hold end groups and non-standard residues.

Experiment: general procedure: Fmoc solid-phase peptide synthesis; H-PAL ChemMatrix; HATU
Conditions: whole synthesis, based on HPLC analysis of the crude peptide, scale 0.1 mmol

PEPTIDE1{V.N.W.K.K.I.L.G.K.I.I.K.V.V.K.[am]}$$$$V2.0
crude yield: 58%

PEPTIDE1{V.[Asn(GlcNAc)].W.K.K.I.L.G.K.I.I.K.V.V.K.[am]}$$$$V2.0
crude yield: 63%
